log2 fold change data for 30 targets are collected here from the supplement of paper PMC10849652.

Chains of the proteins cited; added tags and fusions are not shown. Lines headed by an entry give the natural chain unless they say otherwise; changes in a name come on top.
UniProt Q9BW66: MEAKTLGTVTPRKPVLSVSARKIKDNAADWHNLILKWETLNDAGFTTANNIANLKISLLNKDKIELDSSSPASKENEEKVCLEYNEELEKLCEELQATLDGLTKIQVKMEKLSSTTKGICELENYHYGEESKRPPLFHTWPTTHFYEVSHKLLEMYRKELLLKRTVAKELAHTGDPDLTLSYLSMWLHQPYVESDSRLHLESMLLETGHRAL
UniProt Q86X95: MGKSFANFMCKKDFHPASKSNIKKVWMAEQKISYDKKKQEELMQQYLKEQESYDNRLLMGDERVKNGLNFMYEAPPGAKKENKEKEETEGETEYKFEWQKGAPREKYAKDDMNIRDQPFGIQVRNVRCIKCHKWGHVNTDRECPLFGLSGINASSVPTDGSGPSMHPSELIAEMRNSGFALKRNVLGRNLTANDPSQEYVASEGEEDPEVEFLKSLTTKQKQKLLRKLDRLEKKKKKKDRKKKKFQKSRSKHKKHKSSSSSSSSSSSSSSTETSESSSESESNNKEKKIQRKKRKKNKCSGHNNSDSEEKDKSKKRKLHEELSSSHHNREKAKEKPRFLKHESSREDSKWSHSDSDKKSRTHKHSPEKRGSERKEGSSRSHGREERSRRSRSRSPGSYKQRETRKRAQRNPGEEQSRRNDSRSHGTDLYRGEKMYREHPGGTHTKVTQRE
UniProt O14647: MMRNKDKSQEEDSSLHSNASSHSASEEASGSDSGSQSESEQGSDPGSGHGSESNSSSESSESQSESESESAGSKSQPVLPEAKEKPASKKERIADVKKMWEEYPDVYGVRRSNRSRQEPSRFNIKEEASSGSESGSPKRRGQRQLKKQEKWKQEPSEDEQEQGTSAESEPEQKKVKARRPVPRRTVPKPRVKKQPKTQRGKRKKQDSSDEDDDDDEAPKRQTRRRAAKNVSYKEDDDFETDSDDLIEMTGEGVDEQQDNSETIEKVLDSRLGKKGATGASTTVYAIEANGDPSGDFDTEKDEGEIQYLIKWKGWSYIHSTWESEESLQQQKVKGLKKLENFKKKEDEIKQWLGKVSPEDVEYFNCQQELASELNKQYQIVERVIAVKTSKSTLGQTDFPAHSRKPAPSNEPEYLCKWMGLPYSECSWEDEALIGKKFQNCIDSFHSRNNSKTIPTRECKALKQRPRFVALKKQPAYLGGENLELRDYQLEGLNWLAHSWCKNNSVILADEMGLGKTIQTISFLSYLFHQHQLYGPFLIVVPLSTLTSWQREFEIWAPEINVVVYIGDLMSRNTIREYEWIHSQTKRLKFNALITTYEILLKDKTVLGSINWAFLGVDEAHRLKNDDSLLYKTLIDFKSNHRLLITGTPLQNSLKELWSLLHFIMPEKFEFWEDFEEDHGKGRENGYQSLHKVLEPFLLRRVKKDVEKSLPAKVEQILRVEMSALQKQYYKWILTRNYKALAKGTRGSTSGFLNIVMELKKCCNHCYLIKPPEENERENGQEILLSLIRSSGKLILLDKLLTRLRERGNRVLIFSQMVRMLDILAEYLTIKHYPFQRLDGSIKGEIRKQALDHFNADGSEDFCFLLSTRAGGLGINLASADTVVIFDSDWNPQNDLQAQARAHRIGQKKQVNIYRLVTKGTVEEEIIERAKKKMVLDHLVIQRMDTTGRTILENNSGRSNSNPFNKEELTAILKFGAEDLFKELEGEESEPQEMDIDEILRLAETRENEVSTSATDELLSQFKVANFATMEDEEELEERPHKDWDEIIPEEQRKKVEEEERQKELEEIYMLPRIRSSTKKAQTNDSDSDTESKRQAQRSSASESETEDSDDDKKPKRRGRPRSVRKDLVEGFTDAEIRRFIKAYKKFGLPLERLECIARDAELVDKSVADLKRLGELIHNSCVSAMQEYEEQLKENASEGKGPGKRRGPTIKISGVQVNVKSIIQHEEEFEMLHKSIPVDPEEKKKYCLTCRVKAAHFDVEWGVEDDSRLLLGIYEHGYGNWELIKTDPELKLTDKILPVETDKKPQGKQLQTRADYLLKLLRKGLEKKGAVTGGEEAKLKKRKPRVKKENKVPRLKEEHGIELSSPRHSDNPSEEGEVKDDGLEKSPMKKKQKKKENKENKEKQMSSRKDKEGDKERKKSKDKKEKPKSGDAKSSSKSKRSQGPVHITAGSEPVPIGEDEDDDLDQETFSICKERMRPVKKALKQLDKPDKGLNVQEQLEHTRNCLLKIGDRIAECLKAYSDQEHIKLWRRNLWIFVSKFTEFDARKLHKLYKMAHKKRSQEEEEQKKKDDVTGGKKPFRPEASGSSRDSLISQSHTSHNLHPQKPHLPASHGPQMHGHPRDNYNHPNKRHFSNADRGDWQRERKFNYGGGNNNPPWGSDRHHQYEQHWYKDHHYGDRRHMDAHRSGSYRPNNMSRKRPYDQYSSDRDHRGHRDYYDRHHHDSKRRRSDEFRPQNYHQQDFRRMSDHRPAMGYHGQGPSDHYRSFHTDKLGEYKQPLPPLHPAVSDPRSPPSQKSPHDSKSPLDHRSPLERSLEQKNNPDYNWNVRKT
UniProt Q8WVB6, whole entry, looked up: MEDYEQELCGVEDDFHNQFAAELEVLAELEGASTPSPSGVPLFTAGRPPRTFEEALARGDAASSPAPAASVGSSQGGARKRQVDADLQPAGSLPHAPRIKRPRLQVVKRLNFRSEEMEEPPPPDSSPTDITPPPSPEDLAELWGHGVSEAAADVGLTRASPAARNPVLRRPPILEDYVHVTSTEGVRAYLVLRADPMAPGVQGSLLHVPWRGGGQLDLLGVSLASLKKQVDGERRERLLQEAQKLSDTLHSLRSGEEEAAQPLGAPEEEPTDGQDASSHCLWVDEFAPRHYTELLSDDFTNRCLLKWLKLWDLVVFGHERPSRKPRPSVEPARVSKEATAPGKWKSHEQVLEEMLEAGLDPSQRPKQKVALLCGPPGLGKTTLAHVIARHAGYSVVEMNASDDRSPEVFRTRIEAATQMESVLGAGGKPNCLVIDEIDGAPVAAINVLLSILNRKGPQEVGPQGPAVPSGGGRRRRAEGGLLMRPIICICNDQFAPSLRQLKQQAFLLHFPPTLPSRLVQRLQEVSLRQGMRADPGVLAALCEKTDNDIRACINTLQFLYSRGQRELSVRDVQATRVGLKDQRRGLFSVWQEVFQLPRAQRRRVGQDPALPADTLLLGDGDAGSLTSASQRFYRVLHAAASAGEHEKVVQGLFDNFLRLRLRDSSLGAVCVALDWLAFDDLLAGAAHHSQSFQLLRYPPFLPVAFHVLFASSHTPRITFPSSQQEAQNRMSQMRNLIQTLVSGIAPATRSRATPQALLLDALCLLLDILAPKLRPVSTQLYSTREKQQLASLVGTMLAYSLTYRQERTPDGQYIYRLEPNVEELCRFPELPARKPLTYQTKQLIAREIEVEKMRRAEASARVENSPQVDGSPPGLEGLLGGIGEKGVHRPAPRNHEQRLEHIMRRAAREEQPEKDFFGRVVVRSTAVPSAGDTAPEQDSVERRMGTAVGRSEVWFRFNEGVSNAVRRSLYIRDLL
UniProt Q9Y240: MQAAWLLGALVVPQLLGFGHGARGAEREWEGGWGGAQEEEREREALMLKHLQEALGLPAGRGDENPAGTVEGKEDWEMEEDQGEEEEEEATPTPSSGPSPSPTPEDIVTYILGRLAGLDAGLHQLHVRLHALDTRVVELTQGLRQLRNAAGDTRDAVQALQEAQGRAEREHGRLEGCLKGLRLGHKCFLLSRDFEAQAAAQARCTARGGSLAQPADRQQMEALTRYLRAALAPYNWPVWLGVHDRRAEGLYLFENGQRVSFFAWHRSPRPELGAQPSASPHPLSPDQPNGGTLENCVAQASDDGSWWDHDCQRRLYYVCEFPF
UniProt Q07065: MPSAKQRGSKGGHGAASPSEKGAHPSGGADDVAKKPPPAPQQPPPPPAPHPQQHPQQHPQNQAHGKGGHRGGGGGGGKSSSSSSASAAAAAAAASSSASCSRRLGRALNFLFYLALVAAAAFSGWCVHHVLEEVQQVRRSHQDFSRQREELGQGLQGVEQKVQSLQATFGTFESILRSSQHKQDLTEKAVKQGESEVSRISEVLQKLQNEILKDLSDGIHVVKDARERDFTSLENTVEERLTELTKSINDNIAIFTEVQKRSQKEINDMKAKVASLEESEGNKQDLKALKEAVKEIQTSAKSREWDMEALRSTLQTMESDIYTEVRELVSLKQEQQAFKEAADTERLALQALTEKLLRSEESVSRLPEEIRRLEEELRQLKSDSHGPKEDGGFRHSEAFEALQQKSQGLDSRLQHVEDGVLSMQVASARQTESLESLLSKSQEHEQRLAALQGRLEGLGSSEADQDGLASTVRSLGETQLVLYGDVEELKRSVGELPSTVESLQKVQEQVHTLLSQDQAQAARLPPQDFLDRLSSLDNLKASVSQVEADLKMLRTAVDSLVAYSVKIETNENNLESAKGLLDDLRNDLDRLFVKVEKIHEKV
UniProt O75122: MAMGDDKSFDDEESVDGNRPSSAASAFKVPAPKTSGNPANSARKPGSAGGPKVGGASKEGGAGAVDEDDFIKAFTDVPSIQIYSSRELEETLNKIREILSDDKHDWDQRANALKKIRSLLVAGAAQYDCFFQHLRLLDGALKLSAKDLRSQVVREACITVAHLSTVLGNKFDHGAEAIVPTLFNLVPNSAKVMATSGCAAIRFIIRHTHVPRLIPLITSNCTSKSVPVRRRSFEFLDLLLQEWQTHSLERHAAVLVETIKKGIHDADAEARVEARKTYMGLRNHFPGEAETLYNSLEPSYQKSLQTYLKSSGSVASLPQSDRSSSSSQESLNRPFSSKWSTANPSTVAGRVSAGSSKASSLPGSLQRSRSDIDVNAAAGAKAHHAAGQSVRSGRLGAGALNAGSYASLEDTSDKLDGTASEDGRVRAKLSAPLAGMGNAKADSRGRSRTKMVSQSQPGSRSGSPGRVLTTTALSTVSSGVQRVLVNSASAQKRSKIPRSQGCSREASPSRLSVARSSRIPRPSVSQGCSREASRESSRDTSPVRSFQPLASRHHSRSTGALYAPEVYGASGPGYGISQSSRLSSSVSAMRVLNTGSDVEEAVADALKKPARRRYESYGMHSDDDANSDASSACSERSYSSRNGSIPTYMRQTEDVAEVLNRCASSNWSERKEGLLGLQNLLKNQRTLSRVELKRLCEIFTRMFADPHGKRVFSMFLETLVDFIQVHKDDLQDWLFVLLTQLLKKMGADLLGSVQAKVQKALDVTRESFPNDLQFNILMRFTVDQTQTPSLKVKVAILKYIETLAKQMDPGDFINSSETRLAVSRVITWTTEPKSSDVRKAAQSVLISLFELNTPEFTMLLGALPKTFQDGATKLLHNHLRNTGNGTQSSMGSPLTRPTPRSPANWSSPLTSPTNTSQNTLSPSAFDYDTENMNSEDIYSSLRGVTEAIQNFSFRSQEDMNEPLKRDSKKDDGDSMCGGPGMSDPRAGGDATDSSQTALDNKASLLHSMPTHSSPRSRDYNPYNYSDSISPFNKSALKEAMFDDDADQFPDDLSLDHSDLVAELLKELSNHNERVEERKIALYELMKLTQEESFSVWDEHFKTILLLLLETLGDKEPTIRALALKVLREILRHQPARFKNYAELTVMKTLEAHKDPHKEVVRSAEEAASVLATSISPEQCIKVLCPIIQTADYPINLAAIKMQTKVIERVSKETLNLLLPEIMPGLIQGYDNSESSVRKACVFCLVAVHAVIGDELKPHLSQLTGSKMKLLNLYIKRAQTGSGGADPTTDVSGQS
UniProt Q8N0X4: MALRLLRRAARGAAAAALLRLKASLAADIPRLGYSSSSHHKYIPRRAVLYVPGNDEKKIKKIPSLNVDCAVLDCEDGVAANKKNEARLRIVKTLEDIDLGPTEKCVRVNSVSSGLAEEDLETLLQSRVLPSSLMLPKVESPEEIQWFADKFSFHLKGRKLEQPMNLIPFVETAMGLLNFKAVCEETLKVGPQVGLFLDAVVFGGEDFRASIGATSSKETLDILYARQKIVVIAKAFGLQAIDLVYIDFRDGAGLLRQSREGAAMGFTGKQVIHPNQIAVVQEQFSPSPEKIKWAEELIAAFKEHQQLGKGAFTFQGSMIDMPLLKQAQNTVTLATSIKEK
UniProt Q9BUK0: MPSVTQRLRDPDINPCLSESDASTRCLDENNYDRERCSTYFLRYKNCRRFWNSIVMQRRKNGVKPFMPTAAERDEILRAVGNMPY
UniProt Q15846: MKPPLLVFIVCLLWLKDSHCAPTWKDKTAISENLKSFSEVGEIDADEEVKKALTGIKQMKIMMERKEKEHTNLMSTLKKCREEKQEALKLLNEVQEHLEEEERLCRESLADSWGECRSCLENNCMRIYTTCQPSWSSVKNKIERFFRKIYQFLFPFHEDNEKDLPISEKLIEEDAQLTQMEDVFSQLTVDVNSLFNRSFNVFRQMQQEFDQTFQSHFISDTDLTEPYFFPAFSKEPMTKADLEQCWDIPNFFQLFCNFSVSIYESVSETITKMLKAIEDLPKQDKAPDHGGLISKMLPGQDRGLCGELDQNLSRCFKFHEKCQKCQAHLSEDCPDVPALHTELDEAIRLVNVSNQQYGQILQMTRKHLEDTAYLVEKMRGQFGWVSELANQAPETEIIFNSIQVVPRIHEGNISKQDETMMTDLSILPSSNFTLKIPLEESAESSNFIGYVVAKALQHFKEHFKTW

This is one part of the list.

Compound in the first experiment: C1CCN(C1)C(=O)NC2=CC=CC(=C2)NC3=NC=C(C(=N3)NCCC4=CN=CN4)Br
The experiment can be described thus: log2 fold change, soluble protein after heating vs DMSO (PISA); higher = thermal stabilisation; K562 lysate, 10 uM; active = over 0.2 and 3.5 SD of the protein, either way, in both replicates (recomputed). In a few lines: (§1)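 Log-two fold change in thermal stability relative to solvent controls is reported from duplicates. For each sample, crude K562 extract from dounce-homogenised pellets in PBS pH 7.4 with 1 mM MgCl2, at 1 mg/mL protein, was treated with 10 μM compound for 30 min. Aliquots heated for 3 min across 48°C-58°C were pooled, brought to 0.5% NP-40 at 4°C and cleared at 21,000xg for 90 min. The supernatant was quantified by TMTpro 16plex LC-MS/MS with channel sums equalised.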
With CINP isoform 3 (UniProt Q9BW66), the log2 fold change was inactive: -0.015.
With CIR1 (UniProt Q86X95), the log2 fold change was inactive: 0.069.
On to CHD2 (UniProt O14647), for which the log2 fold change was inactive: -0.092.
For CHTF18 (UniProt Q8WVB6), the log2 fold change is inactive: 0.147.
On the same count and under the same terms, next, CLEC11A (UniProt Q9Y240): inactive: 0.005.
CKAP4 (UniProt Q07065): the log2 fold change was inactive: 0.27.
Take CLASP2 (UniProt O75122): the log2 fold change is inactive: 0.
With CHD4, A0A2R8Y521, the log2 fold change was inactive: -0.033.
With CLDN7 (UniProt O95471), the log2 fold change was inactive: -0.221.
In the case of CLSTN1 (UniProt O94985), the log2 fold change was inactive: -0.036.
Consider CKS2 (UniProt P33552), for which the log2 fold change is inactive: -0.167.
In the case of CLYBL (UniProt Q8N0X4), the log2 fold change was inactive: -0.131.
Consider CHCHD7 isoform 4 (UniProt Q9BUK0), for which the log2 fold change is inactive: 0.006.
CLINT1 (UniProt Q14677): the log2 fold change is inactive: -0.114.
On the same count and under the same terms, next, CHD6 (UniProt Q8TD26): inactive: -0.129.
With CHURC1-FNTB (UniProt B4DL54), the log2 fold change is inactive: -0.05.

Compound in another experiment: C1CN(CCC1(CC2=CC=C(C=C2)Cl)N)C3=NC=NC4=C3C=CN4
The experiment is described as above. In a few lines: as §1
Regarding CINP isoform 3 (UniProt Q9BW66), the log2 fold change was inactive: -0.056.
With CIR1 (UniProt Q86X95), the log2 fold change was inactive: -0.018.
Take CHD2 (UniProt O14647): the log2 fold change was inactive: 0.04.
For the target CHTF18 (UniProt Q8WVB6), the log2 fold change is inactive: -0.17.
Take CLEC11A (UniProt Q9Y240): the log2 fold change was inactive: -0.133.
The same measure, in the same setting: with CKAP4 (UniProt Q07065) the figure was inactive: 0.261; with CLASP2 (UniProt O75122), inactive: 0.023.
With CHD4, A0A2R8Y521, the log2 fold change is inactive: 0.261.
On the same count and under the same terms, with CLDN7 (UniProt O95471) the figure was inactive: -0.081.
In the case of CLSTN1 (UniProt O94985), the log2 fold change was inactive: -0.04.
Same read-out and setting: with CKS2 (UniProt P33552) the figure was inactive: 0.136; with CLYBL (UniProt Q8N0X4), inactive: 0.12.
On to CHCHD7 isoform 4 (UniProt Q9BUK0), for which the log2 fold change is inactive: 0.072.
As for CLINT1 (UniProt Q14677), the log2 fold change is inactive: -0.071.
Same read-out and setting: next, CHD6 (UniProt Q8TD26): inactive: -0.044.
Regarding CHURC1-FNTB (UniProt B4DL54), the log2 fold change is inactive: 0.055.

Compound in another experiment: C1COCCN1CCN2C3=CC=CC=C3N=C2NC(=O)C4=CC(=CC=C4)[N+](=O)[O-] [IRAK-1-4 Inhibitor I]
Described as above. In a few lines:
as §1
As for CINP isoform 3 (UniProt Q9BW66), the log2 fold change is inactive: 0.074.
On to CHPT1 (UniProt Q8WUD6), for which the log2 fold change is inactive: -0.116.
CLIP1, A0A3B3ITA2: the log2 fold change is inactive: 0.121.
Turning to CIR1 (UniProt Q86X95), the log2 fold change was inactive: 0.082.
As for CHD2 (UniProt O14647), the log2 fold change is inactive: -0.034.
Still for that read-out and setting: next, CHTF18 (UniProt Q8WVB6): inactive: -0.004; CHCHD5 (UniProt Q9BSY4): inactive: -0.147.
Still for that read-out and setting: next, CLASP2 (UniProt O75122): inactive: -0.017; CHD4, A0A2R8Y521: inactive: 0.178.
Regarding CLCN5 isoform 2 (UniProt P51795), the log2 fold change was inactive: 0.112.
As to CLSTN1 (UniProt O94985), the log2 fold change is inactive: 0.237.
In the case of CMTR2 (UniProt Q8IYT2), the log2 fold change is inactive: -0.129.
The same measure, in the same setting: next, CHMP4A (UniProt H0YIN6): inactive: 0.142; CLYBL (UniProt Q8N0X4): inactive: 0.01.
For the target CHCHD7 isoform 4 (UniProt Q9BUK0), the log2 fold change is inactive: -0.025.
The same measure, in the same setting: next, CLSTN3 isoform 2 (UniProt Q9BQT9): inactive: 0.042.
Turning to CKLF (UniProt Q9UBR5), the log2 fold change was inactive: 0.082.
On to CHD6 (UniProt Q8TD26), for which the log2 fold change was inactive: -0.002.

Compound in the next experiment: C=CC(=O)N1CCC[C@@H](n2nc(-c3ccc(Oc4ccccc4)cc3)c3c(N)ncnc32)C1 [ibrutinib]
Described as above. The method in brief: as §1
CINP isoform 3 (UniProt Q9BW66): the log2 fold change was inactive: 0.
Turning to CHPT1 (UniProt Q8WUD6), the log2 fold change is inactive: 0.085.
For CHD2 (UniProt O14647), the log2 fold change is inactive: -0.104.
CKAP4 (UniProt Q07065): the log2 fold change was inactive: 0.058.
For CIC (UniProt I3L1Q4), the log2 fold change is inactive: 0.005.
Consider CHMP4A (UniProt H0YIN6), for which the log2 fold change was inactive: -0.077.
With CHCHD7 isoform 4 (UniProt Q9BUK0), the log2 fold change is inactive: -0.109.
As for CHD6 (UniProt Q8TD26), the log2 fold change was inactive: 0.196.
Same read-out and setting: with CHST2 (UniProt Q9Y4C5) the figure was inactive: 0.092.

Compound in the next experiment: CC(=O)c1cnc2ccc(-c3cc(Cl)c(O)c(Cl)c3)nc2c1N[C@H]1CC[C@H](CN(C)C)CC1
Described as above. In a few lines: as §1
In the case of CINP isoform 3 (UniProt Q9BW66), the log2 fold change was inactive: -0.012.
CKMT2 (UniProt D6RHV3): the log2 fold change is inactive: -0.086.
On the same count and under the same terms, next, CMC4 (UniProt P56277): inactive: 0.093; CIR1 (UniProt Q86X95): inactive: -0.062; CHD2 (UniProt O14647): inactive: -0.153.
In the case of CHTF18 (UniProt Q8WVB6), the log2 fold change is inactive: 0.088.
CLEC11A (UniProt Q9Y240): the log2 fold change was inactive: 0.025.
Consider CKAP4 (UniProt Q07065), for which the log2 fold change was inactive: 0.001.
Consider CLASP2 (UniProt O75122), for which the log2 fold change is inactive: -0.048.
The same measure, in the same setting: with CHD4, A0A2R8Y521 the figure was inactive: -0.049; with CLCN5 isoform 2 (UniProt P51795), inactive: -0.109; with CLSTN1 (UniProt O94985), inactive: -0.266.
Take CMTR2 (UniProt Q8IYT2): the log2 fold change is inactive: 0.301.
As for CHMP4A (UniProt H0YIN6), the log2 fold change was inactive: -0.203.
CLYBL (UniProt Q8N0X4): the log2 fold change is inactive: -0.169.
For CHCHD7 isoform 4 (UniProt Q9BUK0), the log2 fold change was inactive: 0.008.
With CLSTN3 isoform 2 (UniProt Q9BQT9), the log2 fold change is inactive: 0.02.
Same read-out and setting: with CKLF (UniProt Q9UBR5) the figure was inactive: 0.055.
Same read-out and setting: with CLK2 (UniProt P49760) the figure was inactive: 0.054.
Same read-out and setting: next, CHST2 (UniProt Q9Y4C5): inactive: 0.011; CLUL1 (UniProt Q15846): inactive: 0.056.
